Source: publication PMC6683124
These are yes or no findings as the source states them, for the method shown. Binding seen in cells or lysates may run through a third protein. Some binding calls cover weakened binding; strength is not graded here.

Amino acid sequences for entries named in this document (tags omitted).
UniProt Q16665: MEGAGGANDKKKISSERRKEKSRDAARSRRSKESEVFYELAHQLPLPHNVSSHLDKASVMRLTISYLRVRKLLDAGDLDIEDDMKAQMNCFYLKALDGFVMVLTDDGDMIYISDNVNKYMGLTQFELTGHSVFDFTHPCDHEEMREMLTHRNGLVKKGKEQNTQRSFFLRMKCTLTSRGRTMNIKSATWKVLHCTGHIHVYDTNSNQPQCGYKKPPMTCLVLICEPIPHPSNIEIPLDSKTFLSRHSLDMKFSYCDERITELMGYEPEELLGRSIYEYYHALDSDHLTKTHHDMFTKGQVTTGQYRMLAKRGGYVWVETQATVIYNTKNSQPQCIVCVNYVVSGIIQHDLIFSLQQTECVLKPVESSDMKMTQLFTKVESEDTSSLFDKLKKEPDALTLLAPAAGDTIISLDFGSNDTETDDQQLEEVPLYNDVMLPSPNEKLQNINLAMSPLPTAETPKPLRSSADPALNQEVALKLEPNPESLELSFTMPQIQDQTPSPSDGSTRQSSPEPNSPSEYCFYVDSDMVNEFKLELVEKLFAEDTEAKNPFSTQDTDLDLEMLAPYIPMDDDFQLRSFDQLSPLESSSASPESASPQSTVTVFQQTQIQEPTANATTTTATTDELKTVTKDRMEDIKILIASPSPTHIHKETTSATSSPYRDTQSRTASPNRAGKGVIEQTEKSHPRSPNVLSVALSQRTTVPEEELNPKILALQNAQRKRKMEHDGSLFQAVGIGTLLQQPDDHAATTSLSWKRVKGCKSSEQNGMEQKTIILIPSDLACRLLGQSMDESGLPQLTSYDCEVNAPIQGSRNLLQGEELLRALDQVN

Target: T1, bicaudal D homolog 1 (human (endogenous in UCB-MSCs)) (UniProt Q96G01)
T1 sequence: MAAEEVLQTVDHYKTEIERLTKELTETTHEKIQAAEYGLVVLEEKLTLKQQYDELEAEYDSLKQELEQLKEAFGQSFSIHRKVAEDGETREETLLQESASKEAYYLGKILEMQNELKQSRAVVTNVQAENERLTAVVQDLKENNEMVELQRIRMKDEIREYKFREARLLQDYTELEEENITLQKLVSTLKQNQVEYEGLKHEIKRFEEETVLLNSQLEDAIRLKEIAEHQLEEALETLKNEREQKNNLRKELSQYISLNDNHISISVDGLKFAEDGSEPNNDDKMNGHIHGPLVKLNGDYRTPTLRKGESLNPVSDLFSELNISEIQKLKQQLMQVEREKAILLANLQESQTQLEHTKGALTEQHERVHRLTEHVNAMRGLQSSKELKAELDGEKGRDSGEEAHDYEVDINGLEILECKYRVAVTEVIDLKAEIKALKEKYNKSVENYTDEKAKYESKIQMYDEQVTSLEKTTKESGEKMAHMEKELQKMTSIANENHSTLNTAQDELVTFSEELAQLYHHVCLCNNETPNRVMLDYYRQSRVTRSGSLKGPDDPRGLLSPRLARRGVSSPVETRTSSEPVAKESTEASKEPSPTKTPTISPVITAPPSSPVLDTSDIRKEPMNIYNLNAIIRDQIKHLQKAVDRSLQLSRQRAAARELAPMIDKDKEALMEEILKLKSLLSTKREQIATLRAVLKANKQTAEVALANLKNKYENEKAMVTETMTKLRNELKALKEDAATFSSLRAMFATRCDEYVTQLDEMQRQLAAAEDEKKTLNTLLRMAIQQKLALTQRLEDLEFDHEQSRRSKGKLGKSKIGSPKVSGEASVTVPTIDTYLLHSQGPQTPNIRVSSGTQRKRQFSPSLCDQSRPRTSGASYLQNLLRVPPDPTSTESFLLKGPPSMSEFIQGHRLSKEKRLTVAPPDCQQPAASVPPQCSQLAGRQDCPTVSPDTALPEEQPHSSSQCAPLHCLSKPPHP
Assay: co-IP; UCB-MSC lysate (20 mM Tris-HCl pH 8.0, 137 mM NaCl, 1% Nonidet P-40, 2 mM EDTA) incubated 6 h at 4°C with BICD1 or rabbit IgG antibodies on protein G magnetic beads; blotted for HIF1α and Dynein IC; cells with or without cycloheximide (10 μM) pretreatment and cP1P (1 μM) for 24 h

In the case of “hypoxia-inducible factor 1 alpha (from UniProt Q16665 1-826)”, the binding is reported as “binds”.
